{"source": "paper PMC7862700", "note": "The list shows a part of the results, in another mix than the full data. At the low end of the ranking, values are background and their order means little.", "data": [{"target": "T1, ELK3 (UniProt P41970)", "T1 sequence": "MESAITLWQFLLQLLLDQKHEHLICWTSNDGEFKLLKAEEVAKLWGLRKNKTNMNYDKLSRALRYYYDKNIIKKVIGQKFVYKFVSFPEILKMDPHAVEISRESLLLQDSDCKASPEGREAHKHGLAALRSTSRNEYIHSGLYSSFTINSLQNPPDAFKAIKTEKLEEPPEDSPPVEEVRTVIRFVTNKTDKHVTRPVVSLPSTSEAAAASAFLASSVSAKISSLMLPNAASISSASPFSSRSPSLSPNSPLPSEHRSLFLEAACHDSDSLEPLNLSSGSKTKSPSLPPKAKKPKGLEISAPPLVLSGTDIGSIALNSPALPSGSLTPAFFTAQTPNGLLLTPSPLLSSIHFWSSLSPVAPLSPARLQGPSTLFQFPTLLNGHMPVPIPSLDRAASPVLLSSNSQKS", "test": "DAPPL (digital affinity profiling via proximity ligation, sequencing)", "settings": "10 mM Tris-HCl pH 7.5, 50 mM NaCl, 1 mM DTT, 4% glycerol, room temperature, 30 min; GST-TFs on glutathione beads, 16-mer random dsDNA library, 0.1% …; high values mean tight binding; double strand, one strand shown; scale: fold enrichment (6-mer frequency, TF over GST control)", "values": [{"sequence": "CAATGG", "binding signal": 0.933}, {"sequence": "CAAGTT", "binding signal": 1.03}, {"sequence": "TCTGAC", "binding signal": 1.24}, {"sequence": "CATGTT", "binding signal": 0.955}, {"sequence": "CCTGCG", "binding signal": 1.22}, {"sequence": "TATTAG", "binding signal": 1.18}, {"sequence": "CCTCTG", "binding signal": 1.58}, {"sequence": "TGCCCA", "binding signal": 0.904}, {"sequence": "TTTGAC", "binding signal": 1.34}, {"sequence": "CCGCAA", "binding signal": 1.34}, {"sequence": "AAATCG", "binding signal": 1.04}, {"sequence": "TAGGCA", "binding signal": 0.983}, {"sequence": "GCGCGC", "binding signal": 1.01}, {"sequence": "GGCCCT", "binding signal": 0.997}, {"sequence": "AGAAAC", "binding signal": 0.983}, {"sequence": "TTCCGA", "binding signal": 1.68}]}, {"target": "T2, SPIC (UniProt Q8N5J4)", "T2 sequence": "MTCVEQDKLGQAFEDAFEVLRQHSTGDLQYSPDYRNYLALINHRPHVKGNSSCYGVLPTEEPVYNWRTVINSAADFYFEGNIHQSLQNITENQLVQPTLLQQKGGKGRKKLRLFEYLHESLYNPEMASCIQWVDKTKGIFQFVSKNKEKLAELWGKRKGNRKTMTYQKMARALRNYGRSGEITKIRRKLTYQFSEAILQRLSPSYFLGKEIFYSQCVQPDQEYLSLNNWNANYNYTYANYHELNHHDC", "test": "DAPPL (digital affinity profiling via proximity ligation, sequencing)", "settings": "10 mM Tris-HCl pH 7.5, 50 mM NaCl, 1 mM DTT, 4% glycerol, room temperature, 30 min; GST-TFs on glutathione beads, 16-mer random dsDNA library, 0.1% …; high values mean tight binding; double strand, one strand shown; scale: fold enrichment (6-mer frequency, TF over GST control)", "values": [{"sequence": "CAATGG", "binding signal": 0.929}, {"sequence": "AGATTA", "binding signal": 0.895}, {"sequence": "AAGCTG", "binding signal": 1.08}, {"sequence": "ACAAAT", "binding signal": 1.12}, {"sequence": "TAAAGC", "binding signal": 1.1}, {"sequence": "CAAGTT", "binding signal": 0.989}, {"sequence": "GACACT", "binding signal": 0.83}, {"sequence": "TCTGAC", "binding signal": 1.04}, {"sequence": "CATGTT", "binding signal": 0.952}, {"sequence": "TCCTAG", "binding signal": 1.2}, {"sequence": "CCTGCG", "binding signal": 1.12}, {"sequence": "GCCGCA", "binding signal": 0.847}, {"sequence": "TTTGCA", "binding signal": 1.23}, {"sequence": "TATTAG", "binding signal": 1.13}, {"sequence": "ACCGGC", "binding signal": 0.934}, {"sequence": "CCTCTG", "binding signal": 1.44}, {"sequence": "TCATAC", "binding signal": 0.948}, {"sequence": "TGTCCG", "binding signal": 1.36}, {"sequence": "TTTCGC", "binding signal": 1.2}, {"sequence": "TGCCCA", "binding signal": 0.961}, {"sequence": "TTGAAA", "binding signal": 1.15}, {"sequence": "TTTGAC", "binding signal": 1.3}, {"sequence": "TTAGGT", "binding signal": 0.948}, {"sequence": "AAGGGC", "binding signal": 0.999}, {"sequence": "TATCTG", "binding signal": 1.17}, {"sequence": "TCAAGT", "binding signal": 1.12}, {"sequence": "CCGCAA", "binding signal": 1.42}, {"sequence": "AAATCG", "binding signal": 1}, {"sequence": "CACGCG", "binding signal": 1.29}, {"sequence": "TAGGCA", "binding signal": 1.11}, {"sequence": "GCGCGC", "binding signal": 1.15}, {"sequence": "TGCGAA", "binding signal": 1.02}, {"sequence": "GGCCCT", "binding signal": 1.11}, {"sequence": "TTTTAG", "binding signal": 1.13}, {"sequence": "GTACAC", "binding signal": 1.33}, {"sequence": "GCTGGC", "binding signal": 1.12}, {"sequence": "AGAAAC", "binding signal": 0.995}, {"sequence": "TTCCGA", "binding signal": 1.61}, {"sequence": "ACATTT", "binding signal": 1.25}]}, {"target": "T3, ETS2 (UniProt P15036)", "T3 sequence": "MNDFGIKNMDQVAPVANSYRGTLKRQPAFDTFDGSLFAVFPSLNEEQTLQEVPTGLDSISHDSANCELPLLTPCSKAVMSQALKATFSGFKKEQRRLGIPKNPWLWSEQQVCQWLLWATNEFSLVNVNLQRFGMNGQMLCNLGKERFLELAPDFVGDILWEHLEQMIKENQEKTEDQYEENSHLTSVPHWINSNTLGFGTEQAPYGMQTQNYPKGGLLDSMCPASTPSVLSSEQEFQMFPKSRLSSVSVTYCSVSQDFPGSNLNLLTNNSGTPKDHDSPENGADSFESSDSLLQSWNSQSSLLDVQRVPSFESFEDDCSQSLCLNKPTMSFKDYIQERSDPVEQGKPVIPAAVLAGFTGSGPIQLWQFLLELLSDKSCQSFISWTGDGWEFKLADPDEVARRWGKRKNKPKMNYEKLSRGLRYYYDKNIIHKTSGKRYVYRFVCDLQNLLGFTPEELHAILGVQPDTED", "test": "DAPPL (digital affinity profiling via proximity ligation, sequencing)", "settings": "10 mM Tris-HCl pH 7.5, 50 mM NaCl, 1 mM DTT, 4% glycerol, room temperature, 30 min; GST-TFs on glutathione beads, 16-mer random dsDNA library, 0.1% …; high values mean tight binding; double strand, one strand shown; scale: fold enrichment (6-mer frequency, TF over GST control)", "values": [{"sequence": "CAATGG", "binding signal": 0.961}, {"sequence": "CAAGTT", "binding signal": 1.13}, {"sequence": "TCTGAC", "binding signal": 1.2}, {"sequence": "CATGTT", "binding signal": 1.01}, {"sequence": "CCTGCG", "binding signal": 1.27}, {"sequence": "TATTAG", "binding signal": 1.06}, {"sequence": "CCTCTG", "binding signal": 1.42}, {"sequence": "TGCCCA", "binding signal": 1.12}, {"sequence": "TTTGAC", "binding signal": 1.33}, {"sequence": "CCGCAA", "binding signal": 1.47}, {"sequence": "AAATCG", "binding signal": 0.969}, {"sequence": "TAGGCA", "binding signal": 0.986}, {"sequence": "GCGCGC", "binding signal": 0.967}, {"sequence": "GGCCCT", "binding signal": 0.99}, {"sequence": "AGAAAC", "binding signal": 0.992}, {"sequence": "TTCCGA", "binding signal": 1.67}]}, {"target": "T4, ETV3 (UniProt P41162-2)", "T4 sequence": "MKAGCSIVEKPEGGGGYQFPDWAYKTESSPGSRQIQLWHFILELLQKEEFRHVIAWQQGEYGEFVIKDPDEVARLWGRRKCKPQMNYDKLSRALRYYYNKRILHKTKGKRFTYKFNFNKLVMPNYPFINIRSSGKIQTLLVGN", "test": "DAPPL (digital affinity profiling via proximity ligation, sequencing)", "settings": "10 mM Tris-HCl pH 7.5, 50 mM NaCl, 1 mM DTT, 4% glycerol, room temperature, 30 min; GST-TFs on glutathione beads, 16-mer random dsDNA library, 0.1% …; high values mean tight binding; double strand, one strand shown; scale: fold enrichment (6-mer frequency, TF over GST control)", "values": [{"sequence": "AGATTA", "binding signal": 0.958}, {"sequence": "AAGCTG", "binding signal": 1.24}, {"sequence": "ACAAAT", "binding signal": 1.1}, {"sequence": "TAAAGC", "binding signal": 1.1}, {"sequence": "GACACT", "binding signal": 1.03}, {"sequence": "TCCTAG", "binding signal": 1.32}, {"sequence": "GCCGCA", "binding signal": 1}, {"sequence": "TTTGCA", "binding signal": 1.26}, {"sequence": "ACCGGC", "binding signal": 1.15}, {"sequence": "TCATAC", "binding signal": 1.01}, {"sequence": "TGTCCG", "binding signal": 1.6}, {"sequence": "TTTCGC", "binding signal": 1.13}, {"sequence": "TTGAAA", "binding signal": 1.17}, {"sequence": "TTAGGT", "binding signal": 1.06}, {"sequence": "AAGGGC", "binding signal": 1.07}, {"sequence": "TATCTG", "binding signal": 1.21}, {"sequence": "TCAAGT", "binding signal": 1.1}, {"sequence": "CACGCG", "binding signal": 1.09}, {"sequence": "TGCGAA", "binding signal": 1.16}, {"sequence": "TTTTAG", "binding signal": 1.21}, {"sequence": "GTACAC", "binding signal": 1.21}, {"sequence": "GCTGGC", "binding signal": 1.1}, {"sequence": "ACATTT", "binding signal": 1.56}]}]}
